PubChem BioAssay AID504793, Drosophila RNAi Screening Center – 2011
The screen tested about 23,000 reagents; this is an unselected part of those that have a named target and a result. In the full data, 62 (0.27%) were called active. 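Calls come from follow-up tests whose scores are not deposited, so confirmed genes may have low counts here; counts are not normalised per plate.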 The raw values are shown without normalisation. The numbers tell different reagents against one gene apart. A plus sign joins genes that one reagent is predicted to hit.

Aim: 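Genes required for cells to halt at G2/M after double-strand DNA breaks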 (primary screen)
Cells: Drosophila S2R+ cells
Reagent: long dsRNA against Drosophila genes, about 0.25 µg dsRNA per well
Timing: 4 days of dsRNA, then 4 hours of drug before read-out
Treatment: doxorubicin 0.5 µM for 4 hours to cause double-strand breaks, in cells also given a low, harmless dose of dsRNA against nbs to sensitise the assay
Measurement: 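Per-well count of mitotic cells stained for phospho-histone H3 after doxorubicin exposure, used as mitotic index; counts are raw and not normalised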
Direction: mitotic cells: higher = more cells in mitosis, weaker G2 arrest
Hit rule: 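a call needs confirmation in secondary tests, with other dsRNAs and a check of mitotic timing without damage, not just a high primary count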
Meaning of the calls: active = confirmed in follow-up tests; inactive = not confirmed

| gene | reagent | mitotic cells, replicate 1 | mitotic cells, replicate 2 | Outcome |
| --- | --- | --- | --- | --- |
| CG5292 | 1 | 4 | – | inactive |
| CG5292 | 2 | 3 | – | inactive |
| PsGEF | 1 | 20 | – | inactive |
| PsGEF | 2 | 11 | – | inactive |
| CG15226 (retired record) | 1 | 8 | – | inactive |
| CG15226 (retired record) | 2 | 4 | – | inactive |
| RalGPS | 1 | 4 | – | inactive |
| RalGPS | 2 | 2 | – | inactive |
| Cyp6a21 | 1 | 3 | – | inactive |
| deltaCOP | 1 | 8 | – | inactive |
| deltaCOP | 2 | 3 | – | inactive |
| CG32536 | 1 | 7 | – | inactive |
| RpL29 | 1 | 11 | – | inactive |
| Cyp9f3 | 1 | 7 | – | inactive |
| Cyp9f3 | 2 | 8 | – | inactive |
| Obp19d | 1 | 8 | – | inactive |
| Or13a | 1 | 11 | – | inactive |
| fau | 1 | 15 | – | inactive |
| fau | 2 | 12 | – | inactive |
| fau | 3 | 2 | – | inactive |
| fau | 4 | 4 | – | inactive |
| fau | 5 | 10 | – | inactive |
| fau | 6 | 14 | – | inactive |
| fau | 7 | 6 | – | inactive |
| UQCR-Q | 1 | 9 | – | inactive |
| CG7970 | 1 | 5 | – | inactive |
| CG7970 | 2 | 2 | – | inactive |
| CG8611 | 1 | 6 | – | inactive |
| CG8611 | 2 | 4 | – | inactive |
| CG3706 | 1 | 10 | – | inactive |
| CNPYb | 1 | 5 | – | inactive |
| Inx7 | 1 | 13 | – | inactive |
| Inx7 | 2 | 8 | – | inactive |
| CG12817 + CG12420 | 1 | 10 | – | inactive |
| Usp8 | 1 | 8 | – | inactive |
| CG5402 | 1 | 13 | – | inactive |
| CG5402 | 2 | 5 | – | inactive |
| CG7912 | 1 | 17 | – | inactive |
| CG42662 + CG30080 | 1 | 7 | – | inactive |
| Prim1 | 1 | 1 | – | inactive |

13 entries from above in another layout.
gene,reagent,"mitotic cells, replicate 1","mitotic cells, replicate 2",Outcome
RalGPS,2,2,,inactive
Cyp6a21,1,3,,inactive
deltaCOP,1,8,,inactive
deltaCOP,2,3,,inactive
CG32536,1,7,,inactive
RpL29,1,11,,inactive
Cyp9f3,1,7,,inactive
Cyp9f3,2,8,,inactive
Obp19d,1,8,,inactive
Or13a,1,11,,inactive
fau,1,15,,inactive
fau,2,12,,inactive
fau,3,2,,inactive

Further results follow.
| gene | reagent | mitotic cells, replicate 1 | mitotic cells, replicate 2 | Outcome |
| --- | --- | --- | --- | --- |
| egg | 1 | 11 | – | inactive |
| egg | 2 | 5 | – | inactive |
| egg | 3 | 4 | – | inactive |
| Osi24 | 1 | 6 | – | inactive |
| RpS7 | 1 | 4 | – | inactive |
| RpS7 | 2 | 5 | – | inactive |
| Mfap1 | 1 | 2 | – | inactive |
| Mfap1 | 2 | 3 | – | inactive |
| narya | 1 | 8 | – | inactive |
| CG9689 | 1 | 2 | – | inactive |
| CG9689 | 2 | 5 | – | inactive |
| Sil1 | 1 | 6 | – | inactive |
| CG9360 | 1 | 23 | – | inactive |
| csw | 1 | 9 | – | inactive |
| csw | 2 | 14 | – | inactive |
| csw | 3 | 9 | – | inactive |
| CG15432 | 1 | 9 | – | inactive |
| CG15432 | 2 | 2 | – | inactive |
| Gmppb | 1 | 5 | – | inactive |
| CG12609 | 1 | 4 | – | inactive |
| IscU | 1 | 12 | – | inactive |
| RpL38 | 1 | 9 | – | inactive |
| jar | 1 | 4 | – | inactive |
| psidin | 1 | 8 | – | inactive |
| Lcp65Ae | 1 | 8 | – | inactive |
| CG7714 | 1 | 7 | – | inactive |
| CG7714 | 2 | 5 | – | inactive |
| hd | 1 | 6 | – | inactive |
| hd | 2 | 5 | – | inactive |
| hop | 1 | 9 | – | inactive |
| hop | 2 | 7 | – | inactive |
| hop | 3 | 11 | – | inactive |
| okr | 1 | 5 | – | inactive |
| okr | 2 | 4 | – | inactive |
| Mcm6 | 1 | 6 | – | inactive |
| Mcm6 | 2 | 3 | – | inactive |
| CG6527 | 1 | 6 | – | inactive |
| CG15322 | 1 | 2 | – | inactive |
| CG15322 | 2 | 8 | – | inactive |
| tw | 1 | 3 | – | inactive |
| CG14720 | 1 | 4 | – | inactive |
| Aps | 1 | 10 | – | inactive |
| CG34210 | 1 | 5 | – | inactive |
| CG32544 | 1 | 1 | – | inactive |
| CG32544 | 2 | 6 | – | inactive |
| Khc | 1 | 6 | – | inactive |
| Khc | 2 | 6 | – | inactive |
| Gpb5 | 1 | 12 | – | inactive |
| fs(1)h | 1 | 5 | 15 | inactive |
| fs(1)h | 2 | 12 | – | inactive |
| Ids | 1 | 5 | – | inactive |
| IFT57 | 1 | 9 | – | inactive |
| CG15820 | 1 | 2 | – | inactive |
| CG15820 | 2 | 8 | – | inactive |
| Spn43Aa | 1 | 2 | – | inactive |
| lawc (retired record) | 1 | 16 | – | inactive |
| CG42516 + Pbp49 | 1 | 10 | – | inactive |
| bero | 1 | 1 | – | inactive |
| bero | 2 | 11 | – | inactive |
| esn | 1 | 5 | – | inactive |
| esn | 2 | 8 | – | inactive |
| CG7781 | 1 | 2 | – | inactive |
| imd | 1 | 5 | – | inactive |
| imd | 2 | 1 | – | inactive |
| Slik | 1 | 10 | – | inactive |
| Slik | 2 | 8 | – | inactive |
| CG3548 | 1 | 7 | – | inactive |
| CG3548 | 2 | 5 | – | inactive |
| lncRNA:sphinx | 1 | 9 | – | inactive |
| Vlet | 1 | 7 | – | inactive |
| Vlet | 2 | 8 | – | inactive |
